Data as given in PubChem BioAssay AID504744 (Drosophila RNAi Screening Center, 2011)

Screen: 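Find genes whose loss alters insulin-driven dAkt phosphorylation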 (primary screen)
Cell system: Drosophila Kc167 cells
Reagent: long dsRNA against Drosophila genes, 250 ng dsRNA per well of a 384-well plate
Time to read-out: 3 days of knock-down, then overnight serum-free starvation before stimulation
Conditions: bovine insulin at 387 nM for 10 minutes after 12 h without serum
Measurement: 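Per-well phospho-dAkt level from an in-cell fluorescent antibody stain, divided by a DNA-dye signal; log2 residuals turned into z-scores that take cell number into account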
Active means: 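Hit in the insulin screen when the two-replicate mean z-score is more extreme than plus or minus 2.5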
The deposit covers about 23,000 reagents; below is a random part of those that have a named target and a result. Over the whole deposit, 98 (0.43%) were called active. 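Only hit calls are given; the phospho-dAkt signals, z-scores and hit direction were not deposited.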

For Hrb87F, how do the results read?
Outcome: inactive

How did the screen score CG6901?
Outcome: inactive

How did the screen score Atg4a?
Outcome: inactive

With INPP5E, what does the deposit list?
Outcome: inactive

For CG14855, what was measured?
Outcome: inactive

For Gr33a, what does the deposit list?
Outcome: inactive

With CG15278, what does the deposit list?
Outcome: inactive

Which result is listed for rtv?
Outcome: inactive

For CG4066, how do the results read?
Outcome: inactive

What did the screen give for Cmpk?
Outcome: inactive

How did the screen score CG31664?
Outcome: inactive

For pths, what does the deposit list?
Outcome: inactive

With CR40441, what does the deposit list?
Outcome: inactive

How did the screen score Hmt-1?
Outcome: inactive

How did the screen score CG31787?
Outcome: inactive

What is on record for CG4269?
Outcome: inactive

For Ho, what does the deposit list?
Outcome: inactive

With Bfc, what was measured?
Outcome: inactive

What did the screen give for jtb?
Outcome: inactive

With fal, what was measured?
Outcome: inactive

For CG18449, what was measured?
Outcome: inactive

For ct, what was measured?
Outcome: inactive

For st, what was measured?
Outcome: inactive
